Results: US20250019432A1
Results are given in words; binding and its absence hold for the method and conditions named.

Protein sequences, listed by entry. Tags and fused reporters are not part of them. Residues count along the entry.
UniProt Q9Y336, residues 18-348: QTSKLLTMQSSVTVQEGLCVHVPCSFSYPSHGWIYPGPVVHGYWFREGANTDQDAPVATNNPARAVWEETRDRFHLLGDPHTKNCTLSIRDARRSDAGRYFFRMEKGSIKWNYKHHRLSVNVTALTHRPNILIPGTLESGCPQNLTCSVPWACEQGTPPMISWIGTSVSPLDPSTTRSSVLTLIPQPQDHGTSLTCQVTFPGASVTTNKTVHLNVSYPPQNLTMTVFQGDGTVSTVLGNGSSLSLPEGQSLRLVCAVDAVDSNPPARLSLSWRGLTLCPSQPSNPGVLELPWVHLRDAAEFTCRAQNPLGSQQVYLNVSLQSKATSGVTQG

Target: S9ecto-Fc (human siglec9 ectodomain fused with human Fc domain) (human) (UniProt Q9Y336)
Assay: ELISA

B1: S0057 (antibody, V domains shown)
VH: QGQLVQSGAEVKKPGASVKVSCKASGYTFNNYGISWVRQAPGQGLEWMGWISAYNGFTRSTQKFQGRVTLTTDTSTSTAHMELRSLRSDDTAAYYCARDGGDGFDPWGQGTLVTVSS
VL: EIVLTQSPATLSLSPGERATLSCRASQSVSSFLAWYQQKPGQAPRLLIFDASNRATGIPARFSGSGSGTDFTLTISSLEPEDFAVYYCQQRSNWITFGQGTRLEIKRA
How did the binding turn out when B1 was run?
Its binding is “no binding (tested: A450>0.09 (so in the source))”.
